Results as given in patent US4619942A, “Inhibition of Respiratory Syncytial virus-induced cell fusion by amidino compounds” (priority 1983, dated 1986).
Some of these results come from one statement about several compounds together.

Columns and labels:
Hep-2 cells = assay: Cytotoxic effect on Hep-2 cell viability, trypan blue exclusion (Table 2); conditions: Hep-2, Table 2
RS virus = RS virus cytopathology / syncytium formation in Hep-2 cells (Table 3)

Q: How did the “Cytotoxicity relative to other compounds (in words)” value (Hep-2 cells) turn out when N=C(N)c1ccc(OCCCCCCOc2ccccc2)cc1 [Compound 3, 1-(4-Amidinophenoxy-6-phenoxyhexane] was run?
A: The value was “intermediate in their cytotoxicity”.

Q: Which “Cytotoxicity relative to other compounds (in words)” value (Hep-2 cells) does the source give for N=C(N)c1ccc(OCCCCCCCCOc2ccccc2)cc1 [Compound 4, 1-(4-Amidinophenoxy)-8-phenoxyoctane] here?
A: Its value is “intermediate in their cytotoxicity”.

Q: Which “Cytotoxicity relative to other compounds (in words)” value (Hep-2 cells) does the source give for N=C(N)c1ccc(OCCC(O)COc2ccc(C(=N)N)cc2)cc1 (centres unmarked) [Compound 5, 1,4-Di(4-amidinophenoxy)-2-butanol] here?
A: Its value is “intermediate in their cytotoxicity”.

Q: Which results are given for N=C(N)c1ccc2nc(CCc3nc4ccc(C(=N)N)cc4[nH]3)[nH]c2c1 [Compound 8, 1,2-Bis(5-amidino-2-benzimidazolyl)ethane]?
A: Suppression of RS virus syncytia (in words) (RS virus): suppressed the appearance of the characteristic syncytia; Cytotoxicity relative to other compounds (in words) (Hep-2 cells): possessed the same or even less toxic activity than benzamidine

Q: N=C(N)c1ccc2[nH]ccc2c1 [Compound 9, 5-Amidinoindole] was tested. Which “Suppression of RS virus syncytia (in words)” value (RS virus) did it give?
A: The value was “suppressed the appearance of the characteristic syncytia”.

Q: And the “Cytotoxicity relative to other compounds (in words)” value (Hep-2 cells)?
A: The value was “possessed the same or even less toxic activity than benzamidine”.

Q: For N=C(N)c1ccc2occc2c1 [Compound 10, 5-Amidinobenzofuran], which “Cytotoxicity relative to other compounds (in words)” value (Hep-2 cells) is on record?
A: Its value is “possessed the same or even less toxic activity than benzamidine”.
